Assay results reported in publication PMC9426492, “TrmB Family Transcription Factor as a Thiol-Based Regulator of Oxidative Stress Response” (mBio, 2022).
Results are given in words; binding and its absence hold for the method and conditions named. Tags and fused reporters may be left off the sequences shown.

Key:
[1] = biological target: OxsR C24A with a C-terminal StrepII tag (Haloferax volcanii) (UniProt D4GY41); assay: non-reducing SDS-PAGE (intersubunit disulfide bond assay); purified StrepII-tagged protein dialysed overnight in 100 mM Tris-Cl pH 7.5, 2 M NaCl; no reducing reagent; diluted 1:1 in SDS-loading buffer, boiled 10 min, 16% SDS-PAGE, Coomassie stain; shows only covalently (disulfide) linked subunits; both purified
[2] = biological target: OxsR C24A with a C-terminal StrepII tag (Haloferax volcanii) (UniProt D4GY41); assay: reducing SDS-PAGE (intersubunit disulfide bond assay); as the non-reducing assay, but incubated with DTT (10, 100, 200 mM; 200 mM found optimal) for 25 min on ice before SDS-loading buffer, boiling and 16% SDS-PAGE; both purified
[3] = biological target: OxsR (HVO_2970) wild type with a C-terminal StrepII tag (Haloferax volcanii) (UniProt D4GY41); assay: condition: only with the reducing reagent DTT (200 mM found optimal); reducing SDS-PAGE (intersubunit disulfide bond assay); as the non-reducing assay, but incubated with DTT (10, 100, 200 mM; 200 mM found optimal) for 25 min on ice before SDS-loading buffer, boiling and 16% SDS-PAGE; both purified

| binding [1] | binding [3] | Binder | binding [2] |
| --- | --- | --- | --- |
| no binding |  | OxsR C24A with a C-terminal StrepII tag (protein, UniProt D4GY41 1-123) MADAPDMGELMETEDPNFGQVLAAVFGIQSHESRTYLALLDNPGSTVAELAEVLDRDRSNVNRSLTTLLDKGLTERKRRLLDPGGYVYQYTATPLPEAKEMMHAALDEWAEDVHARIDAFGES | no binding (tested: with DTT (200 mM found optimal)) |
|  | no binding | OxsR (HVO_2970) wild type with a C-terminal StrepII tag (natural protein, Haloferax volcanii, UniProt D4GY41 1-123, looked up, 123 aa, 14 kDa; UniProtKB D4GY41; also called OxsR-StrepII; OxsR wt; source: H. volcanii SH125 (H26 ΔoxsR) carrying pJAM4019, purified (Strep-Tactin Superflow Plus resin, 2 M NaCl buffers); not shown: StrepII, C-terminal, kept) MADAPDMGELMETEDPNFGQVLACVFGIQSHESRTYLALLDNPGSTVAELAEVLDRDRSNVNRSLTTLLDKGLTERKRRLLDPGGYVYQYTATPLPEAKEMMHAALDEWAEDVHARIDAFGES |  |
